From PubChem BioAssay AID2685 (National Center for Advancing Translational Sciences (NCATS), 2010)
The whole screen tested about 320,000 compounds, of which about 2,100 (0.66%) were called active. The shares of active, inactive and inconclusive entries below differ from those in the screen. The call rests on the fitted dose curve; in most records, active means well fitted inhibition curve with a large enough effect in the signal ratio, with a control signal flat (not every such curve was filed as active); inconclusive means small, poorly fitted or top-dose-only effect, or effect the other way, or a change in a side signal; inactive means flat fitted curve, though single readings scatter; the % refers to the signal ratio. Where the call is inconclusive, the potency comes from a doubtful curve fit.

Assay: qHTS Assay for Lipid Storage Modulators in Drosophila S3 Cells
Conditions: BODIPY lipid droplet fluorescence, 18-24 h, cells fed with added oleic acid; lipid storage change, negative = inhibition: at 46.1 µM (top of the series) unless noted
Method in brief: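 Drosophila S3 cells loaded with oleic acid (400 uM, as added) and compounds at several concentrations; lipid droplets imaged by 488-nm laser-scanning cytometry, 500–530 nm intensity and object ratio to cell channel. Percent activity normalized to 20 uM Triacsin C.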
On the % scale 0 is the no-effect control and ±100 the full control effect; potency means the concentration at half of the fitted maximal effect.

Lipid storage change, negative = inhibition, inconclusive:
O=C(Nc1cc([N+](=O)[O-])ccc1C(=O)NCCN1CCOCC1)c1ccccc1 10%
O=C(O)c1ccccc1C(=O)NNc1cccc(Cl)n1 -12.3% [at 9.22 µM]
CCc1ccc(NC(=S)N(CCC(C)C)C2CCN(C(C)=O)CC2)cc1 6.41%
Cc1cc(S(=O)(=O)N2CCCCC2CCNC(=O)C(=O)NCc2cccnc2)ccc1F (stereo not given) 16.3%
Cc1cc2ncn(C(=O)c3c(-c4ccccc4)noc3C)c2cc1C 46.9%
CCN(C(=O)COC(=O)c1ccc(C=O)cc1)c1c(N)n(Cc2ccccc2)c(=O)[nH]c1=O -13.9%
C=CCN(CC(=O)NC1CCCC1)C(=O)C(=O)Nc1ccc2c(c1)OCCO2 8.83%
Cc1cccc(C(=O)Nc2ccnc(-c3cccnc3)n2)c1 0.0828% [at 9.22 µM]
Cc1ccc(CCNC(=O)C2CCC(=O)N(Cc3ccccc3F)C2)o1 (stereo not given) -17.5%
BrC(/C=N/Nc1nc(N2CCOCC2)nc(N2CCOCC2)n1)=C/c1ccccc1 -18.1%
COC(=O)c1ccccc1S(=O)(=O)NNC(=O)c1ccccc1-n1cccc1 7.96%
O=C(C/C=N\OCc1c(Cl)cccc1Cl)Oc1ccc(Cl)cc1Cl 34%
Cc1nn(-c2ccccc2)c(C)c1NC(=O)COC(=O)CCCOc1ccccc1 5.64%

Potency, inconclusive:
Cc1cccc(C(=O)N[C@H](C(=O)NCCc2ccc(Cl)cc2)C(C)C)c1 184 nM [activator, full curve]
CC12CCC(C(=O)NCc3cccnc3)(OC1=O)C2(C)C (stereo not given) 5.2 nM [falling, full curve, poor fit]
COc1ccc(Cl)cc1NC(=S)NCCC(c1ccccc1)c1ccccc1 16400 nM [falling, single point]
Cc1cccc(NC(=O)CSc2ncnc3sc(C)c(C)c23)n1 580 nM [falling, single point]
CCOc1ccc(-c2nnc3ccc(SCc4ccc(C(=O)OC)o4)nn23)cc1 651 nM [activator, single point]
CN(C)Cc1c(O)ccc2c(=O)c(-c3ccc(Cl)cc3)coc12 29100 nM [falling, partial curve, poor fit]
CCN(CC)C(=O)C(=O)Nc1ccc(Oc2ccccc2)cc1 3660 nM [falling, single point]

Reprinted at random: 2 compounds from above, in no set order.
Potency, inconclusive:
Cc1cccc(NC(=O)CSc2ncnc3sc(C)c(C)c23)n1 580 nM [falling, single point]
CC12CCC(C(=O)NCc3cccnc3)(OC1=O)C2(C)C (stereo not given) 5.2 nM [falling, full curve, poor fit]
